# Measurements taken from PubChem BioAssay AID651640 (Broad Institute, 2012).
# Out of some 350,000 compounds screened, about 6,000 (1.7%) were called active. The shares of active, inactive and inconclusive entries below differ from those in the screen. No stated cut-off is given here; in the data, active means CPE inhibition above about 20% (passing the limit was not always enough); inconclusive means no clear call, values can overlap the other calls; tested in BHK-21 cells. Some structures have more than one record in an assay (separate samples or runs), and their calls can disagree.
# Assay: protection of cells from dengue 2 killing – plate reader, single concentration, primary screen (AID 651640);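 further: 0% = median of neutral control wells and 100% = median of positive control wells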
# Details: DENV2-infected cells, cytopathic effect rescue, at 9.99 µM, hits give high values
row,Structure (SMILES),CPE inhibition
1,COc1ccc(NC(=O)C(Cc2ccccc2)n2cccc2)cc1OC (stereo not given),inconclusive: 35.5%
2,CCC(=O)Nc1ccc2c(c1)C(=O)N(C)[C@@H]1CC[C@H](CC(=O)N[C@H](C)c3ccccc3)O[C@@H]1CO2,inconclusive: 20.9%
3,C[C@@H]1CN([C@H](C)CO)C(=O)c2cc(-c3ccc(F)cc3)cnc2O[C@H]1CN(C)C(=O)Nc1ccccc1F,inconclusive: 34.5%
4,Cc1ccc2cc(CN(c3ccccc3)S(=O)(=O)c3ccccc3)c(=O)[nH]c2c1,inconclusive: 61.5%
5,Cc1ccc(S(=O)(=O)N2C[C@@H](C)[C@]3(C2)[C@H](O)[C@H](OC(=O)NCc2ccccc2)C[C@H]2C(=O)N(c4ccccc4)C(=O)[C@H]23)cc1,active: 31.2%
6,COc1ccc(S(=O)(=O)N2CCC(C(=O)NCCC(=O)NCc3cccnc3)CC2)cc1,active: 75.2%
7,COc1ccc(C2=Nc3ccccc3NC(=O)C2N(CCCn2ccnc2)C(=O)c2cccc(S(C)(=O)=O)c2)cc1 (stereo not given),inactive: 3.09%
8,C=CCN1C(=O)c2ccccc2Sc2ccc(C(=O)NCC(OC)OC)cc21,active: 29.3%
9,Cc1noc(C)c1NC(=O)N(C)C[C@@H]1Oc2c(NS(=O)(=O)c3cccs3)cccc2C(=O)N([C@@H](C)CO)C[C@H]1C,inconclusive: 31.4%
10,Cc1ccc(C)c(NC(=O)c2ccc3c(=O)n4c(nc3c2)CCC4)c1,inconclusive: 22.6%
11,C[C@@H]1CN([C@H](C)CO)C(=O)Cc2cc(NC(=O)CCN3CCOCC3)ccc2O[C@@H]1CN(C)S(=O)(=O)c1cccs1,inconclusive: 35.6%
12,COc1ccc(S(=O)(=O)Nc2ccc3c(c2)C(=O)N([C@@H](C)CO)C[C@H](C)[C@H](CN(C)C(=O)Nc2ccc(C(F)(F)F)cc2)OCCCC[C@H](C)O3)cc1,active: 109%
13,CCCN1C[C@@H](C)[C@@H](OC)CN(C)C(=O)c2cc(NC(=O)Nc3ccccc3F)ccc2OC[C@@H]1C,inactive: 10.3%
14,CO[C@@H](CN(C)C(=O)c1cnccn1)[C@H](C)CN([C@@H](C)CO)S(=O)(=O)c1ccc(F)cc1,active: 26.7%
15,O=C(CC(c1ccccc1)c1ccccc1)NCC(O)c1ccc([N+](=O)[O-])cc1 (stereo not given),inconclusive: 20.3%
16,C[C@@H]1CN([C@@H](C)CO)C(=O)c2cc(NC(=O)NC3CCCCC3)ccc2O[C@@H]1CN(C)Cc1ccncc1,inactive: 5.33%
17,CCNC(=O)c1cc2c(c(-c3cccc(-c4cncnc4)c3)n1)[C@@H](CCO)N(C(C)=O)C2,active: 39.7%
18,O=C(Nc1cc(C(F)(F)F)ccc1N1CCOCC1)C1=NN(c2ccccc2)C(=O)CC1,inactive: -3.6%
19,COc1ccc(CNC(=O)C[C@@H]2CC[C@@H]3[C@H](COc4ccc(NC(C)=O)cc4C(=O)N3C)O2)cc1,inactive: -1.8%
20,COc1ccc(CCNC(=O)COc2cc(O)c3c(c2)OC(C)(C)CC3=O)cc1,inconclusive: 39.2%
21,CCOc1ccc(OCC)c(NC(=O)Cn2cccc2)c1,inconclusive: 24.1%
22,Cc1noc(C)c1NC(=O)N(C)C[C@@H]1OCCCC[C@@H](C)Oc2ccc(NS(=O)(=O)c3c(C)noc3C)cc2C(=O)N([C@H](C)CO)C[C@@H]1C,inactive: -0.573%
23,CC(OC(=O)CC1CCCC1)C(=O)Nc1ccc(S(N)(=O)=O)cc1 (stereo not given),inconclusive: 32.8%
24,CC(NC(=O)c1ccc(CS(=O)(=O)c2ccc(Cl)cc2)o1)c1ccc2c(c1)OCCO2 (stereo not given),inactive: 4.6%
25,O=C(N[C@@H]1CC[C@@H](CCNS(=O)(=O)Cc2ccccc2)O[C@H]1CO)c1ccccc1F,inconclusive: 36.8%

row,Structure (SMILES),CPE inhibition
1,C[C@@H]1CN([C@@H](C)CO)C(=O)c2cc(-c3cncnc3)cnc2O[C@H]1CN(C)C(=O)Nc1ccc2c(c1)OCO2,active: 47%
2,Cc1cccc(C(C)C)c1NC(=O)COC(=O)c1cc2ccccc2oc1=O,inconclusive: 20.3%
3,Cc1nc(Cc2nnc(SCC(=O)N3CCN(c4ccccc4)CC3)o2)cs1,inconclusive: 40%
4,CCCNC(=O)N(C)C[C@@H]1Oc2ncc(C#C[C@H](C)O)cc2C(=O)N([C@@H](C)CO)C[C@H]1C,inconclusive: 14.7%
5,Cc1ccc(CN(C)C(=O)CSc2nnc3n2CCCCC3)c(C)c1,inconclusive: 21.5%
6,O=C(C[C@@H]1CC[C@@H](NC(=O)C2CCOCC2)[C@@H](CO)O1)NCc1ccncc1,inactive: -4.39%
7,COc1cccc(CN2CCC(C(=O)Nc3ccc(-c4cccc(C)c4)cc3)CC2)c1O,inactive: -17.3%
8,O=C(O)CCC(=O)NNC(=O)c1ccc(Br)cc1,inconclusive: 22%
9,O=C(N[C@H](Cc1ccccc1)C(=O)N1CCN(Cc2ccccn2)CC1)[C@H]1O[C@@H](n2ccc(=O)[nH]c2=O)[C@H](O)[C@@H]1O,inconclusive: 50.9%
10,C[C@H](NC(=O)C[C@H]1C[C@@H]2c3cc(NC(=O)Cc4ccncc4)ccc3O[C@@H]2[C@@H](CO)O1)c1ccccc1,inactive: -4.38%
11,Cc1cc(Nc2cccc(C(F)(F)F)c2)cc(=O)n1-c1cccc(C(F)(F)F)c1,inconclusive: 37%
12,Cc1ccccc1NC(=O)CCCN1C(=O)C2CC=CCC2C1=O (stereo not given),inconclusive: 20.3%
13,COc1cccc(CNc2cc(C)ccn2)c1O,inactive: 8.12%
14,Cc1ccc(S(=O)(=O)N(C)C[C@H]2Oc3cc(-c4cccc(F)c4)ccc3S(=O)(=O)N([C@H](C)CO)C[C@H]2C)cc1,inactive: -1.73%
15,COc1ccc(S(=O)(=O)N(C)c2ccc(C(=O)NCC3CCCO3)cc2)cc1OC (stereo not given),inactive: -2.08%
16,COC(=O)c1ccc(COc2ccc(C)cc2[N+](=O)[O-])o1,inactive: -1.42%
17,CC(C)(C)OC(=O)N1CCC(NC(=O)c2[nH]cnc2C(=O)Nc2ccccc2F)CC1,inconclusive: 39.3%
18,COc1ccccc1NS(=O)(=O)c1ccc2[nH]c(=S)oc2c1,inconclusive: 44.2%
19,Cn1c(=O)[nH]c(=O)c2c1nc(N/N=C/c1ccncc1)n2Cc1ccc(Cl)cc1,inconclusive: 43%
20,Cc1ccc(C)c(OCC(=O)Nc2ccc3c(c2)OCO3)c1,inconclusive: 24.2%
21,O=C(N[C@@H]1CC[C@H](CCNC(=O)C2CCCCC2)O[C@@H]1CO)c1ccccn1,active: 149%
22,CCc1noc(C)c1C(=O)Nc1cccc(S(=O)(=O)N2CCCCCC2)c1,inconclusive: 24.2%
23,Cc1cc(C)cc(NC(=O)COc2coc(CN3CCc4ccccc4C3)cc2=O)c1,inconclusive: 29%
24,C[C@@H]1CN([C@@H](C)CO)C(=O)c2cc(N(C)C)ccc2O[C@@H]1CN(C)S(C)(=O)=O,inconclusive: 31.5%
25,COc1ccc(CN2CCN(CC=C(C)C)C(CCO)C2)cc1Cn1cccn1 (stereo not given),inactive: -0.186%

row,Structure (SMILES),CPE inhibition
1,O=C(N/N=C/c1ccc(O)cc1)c1cc(-c2ccccc2)nc2ccccc12,inactive: 1.26%
2,O=C1C=CC(O)C2(CO)OC12 (stereo not given),active: 25.2%
3,CCOC(=O)C1(Cc2ccccc2C)CCCN(C(=O)CCc2c(C)noc2C)C1 (stereo not given),active: 49.6%
4,COc1ccc(NC(=O)N(C)C[C@H]2Oc3c(NS(=O)(=O)c4ccc(Cl)cc4)cccc3C(=O)N([C@H](C)CO)C[C@H]2C)cc1,active: 48.8%
5,O=C(C[C@H]1CC[C@@H](NC(=O)c2cccc(F)c2)[C@H](CO)O1)NCCN1CCCC1,inactive: 5.87%
6,Cc1ccc(S(=O)(=O)N2CCOCC2)cc1NC(=O)COC(=O)c1ccc(Br)o1,inconclusive: 46.2%
7,F[B-](F)(F)COc1ccccc1,active: 35.5%
8,CSc1ccc(CN(C)CC(=O)Nc2ccccc2C(=O)NC2CC2)cc1,inconclusive: 80.6%
9,Cc1ccc(-c2cnc3c(c2)C(=O)N([C@H](C)CO)C[C@H](C)[C@@H](CN(C)C(=O)Cc2ccncc2)O3)cc1,active: 27.1%
10,Cc1c(C(=O)NCCCN2CCOCC2)sc2nc(-c3ccccc3)cn12,active: 87%
11,O=C(c1ccc(CSc2nc3ccncc3[nH]2)cc1)N1CCCCC1,inconclusive: 74.3%
12,COc1ccc(C2/C=C\CN(C(=O)c3ccccc3)CC(=O)N2Cc2cccc(F)c2)cc1 (stereo not given),inactive: -1.65%
13,O=C(NN(C(=O)c1ccccc1)c1cccs1)c1ccccc1,inconclusive: 56.8%
14,COc1ccc(NC(=O)c2noc(C(C)C)c2[N+](=O)[O-])cc1,inactive: -0.115%
15,O=C(COC(=O)c1ccc(O)cc1)Nc1ccccc1[N+](=O)[O-],inconclusive: 21%
16,C[C@@H]1CN([C@@H](C)CO)C(=O)c2cc(NC(=O)c3ccncc3)ccc2O[C@H]1CN(C)S(C)(=O)=O,inactive: -5.99%
17,O=C(NCc1ccccn1)Nc1cc(Cl)ccc1Cl,inactive: 10.2%
18,CCC(C)n1c(=O)c2sccc2n2c(CCCC(=O)N3CCC(C(N)=O)CC3)nnc12 (stereo not given),inconclusive: 23.9%
19,O=S(=O)(Nc1cccc(F)c1)c1cccc2nsnc12,inactive: 7.92%
20,COC(=O)c1ccc2nc(-c3ccc(C)cc3)c(Cc3ccccc3)n2c1,inactive: -5.19%
21,C[C@H](CO)N1C[C@H](C)[C@@H](CN(C)C)Oc2ccc(NC(=O)Nc3cccc4ccccc34)cc2CC1=O,active: 38.8%
22,Cc1ccc2nc(-c3ccccc3)c(Cc3ccccc3C(F)(F)F)n2c1,inconclusive: 55%
23,CCN(C[C@H]1N[C@@](C)(C(=O)OC)[C@H]2C(=O)N(C)C(=O)[C@@H]12)C(=O)c1ccc(C)cc1,inconclusive: 28.7%
24,Cc1ccc(S(=O)(=O)N2CCC(C(=O)OCC(=O)N(C)Cc3ccccc3)CC2)cc1C,inactive: -4.63%
25,O=C(c1ccco1)N1CCN=C1SCc1ccc(F)cc1,inconclusive: 29.9%

# An excerpt from above in order of SMILES length, rising.
row,Structure (SMILES),CPE inhibition
8,CSc1ccc(CN(C)CC(=O)Nc2ccccc2C(=O)NC2CC2)cc1,inconclusive: 80.6%
10,Cc1ccc(C)c(NC(=O)c2ccc3c(=O)n4c(nc3c2)CCC4)c1,inconclusive: 22.6%
18,CCC(C)n1c(=O)c2sccc2n2c(CCCC(=O)N3CCC(C(N)=O)CC3)nnc12 (stereo not given),inconclusive: 23.9%
